Laboratory results: US4649131A (Hoffmann-La Roche Inc., priority 1985, dated 1987)

How the values were obtained:
[1] = general procedure: Boc solid-phase peptide synthesis; BHA resin; dicyclohexylcarbodiimide (DCC); symmetric anhydride procedure; details: whole synthesis
[2] = general procedure: Boc solid-phase peptide synthesis; Boc-Arg(Tos)-resin (Bachem); dicyclohexylcarbodiimide (DCC); symmetric anhydride procedure; details: whole synthesis, scale 0.13 mmol
[3] = general procedure: Boc solid-phase peptide synthesis; benzhydrylamine (BHA) resin, methylbenzhydrylamine (MBHA) resin, benzyl ester resin; dicyclohexylcarbodiimide (DCC); symmetric anhydride procedure; details: whole synthesis

[Ala^15 ]-hGRF(1-29)-NH2
crude mass ([1]; scale 0.30 mmol): 1010 mg
isolated mass ([1]; scale 0.30 mmol): 71.3 mg
isolated yield ([1]; scale 0.30 mmol): 7.05%

[Ala^15 ]hGRF(1-29)-OH
crude mass [2]: 262 mg

[D-Ala^2, Ala^15 ]hGRF(1-29)-NH2
crude mass ([1]; scale 0.16 mmol): 575 mg

[Leu^15 ]hGRF(1-29)-NH2
crude mass ([1]; scale 0.28 mmol): 536 mg

[Val^15 ]-hGRF(1-29)-NH2
crude mass ([1]; scale 0.28 mmol): 625 mg

[desNH2 -Tyr^1,D-Ala^2,Ala^15 ]hGRF(1-29)-NH2
isolated yield ([3]; on 200 mg crude portion): 9%

[desNH2 Tyr^1 ]hGRF(1-29)-NH2
isolated yield ([3]; on 120 mg crude portion): 30% yield
crude mass ([3]; scale 0.13 mmol): 0.79 g

[desNH2 Tyr^1,Ala^15 ]hGRF(1-29)-NH2
isolated yield ([3]; on 200 mg crude portion): 5% yield
